{"sequences": {"note": "Amino acid sequences for entries named in this document (tags omitted). A change or cut given only in a name is not applied to a line headed by its entry. Residues count along the entry.", "UniProt P06748": "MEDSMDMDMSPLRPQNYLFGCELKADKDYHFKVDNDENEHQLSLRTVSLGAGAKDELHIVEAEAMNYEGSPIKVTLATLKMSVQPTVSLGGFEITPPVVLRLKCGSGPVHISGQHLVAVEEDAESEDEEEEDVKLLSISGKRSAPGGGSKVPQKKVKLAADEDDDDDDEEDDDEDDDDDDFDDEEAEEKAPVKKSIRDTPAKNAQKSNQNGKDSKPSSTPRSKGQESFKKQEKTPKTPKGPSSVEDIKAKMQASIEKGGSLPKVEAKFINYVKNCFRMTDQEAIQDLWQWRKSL", "NPM1_(240), the NTD and the entire IDR of NPM1": "residues 1-240 of P06748", "NPM1_(188), the NTD and the acidic regions of the IDR of NPM1": "residues 1-188 of P06748"}, "source": "paper PMC9896144", "about": "“A “grappling hook” interaction connects self-assembly and chaperone activity of Nucleophosmin 1” (PNAS Nexus, 2023)", "key": {"[1]": {"target": "NPM1_(240-294), the isolated C-terminal nucleotide-binding domain (CTD) of NPM1 (human) (UniProt P06748)", "assay": "native MS; each NPM1 variant alone; nESI with collision-induced dissociation, collision voltages 25 to 75 V; both purified"}, "[2]": {"target": "NPM1_(188), the NTD and the acidic regions of the IDR of NPM1 (human) (UniProt P06748)", "assay": "native MS; mixture of NPM1_188 and NPM1_240-294 (Fig. S6a); both purified"}, "[3]": {"target": "NPM1_(240), the NTD and the entire IDR of NPM1 (human) (UniProt P06748)", "assay": "other fluorescence titration; intrinsic fluorescence of tryptophans 288 and 290 of NPM1_240-294; equimolar amounts of partner added (single point), n = 6; also with quadruplex DNA; both purified"}}, "note": "Results are given in words; binding and its absence hold for the method and conditions named. Some binding calls cover weakened binding; strength is not graded here."}
{"substance": "NPM1_(240-294), the isolated C-terminal nucleotide-binding domain (CTD) of NPM1 (from UniProt P06748 240-294) (domain or fragment)", "values": [{"measurement": "binding", "setting": "[1]", "value": "no binding"}, {"measurement": "binding", "setting": "[2]", "value": "binds weakly"}, {"measurement": "binding", "setting": "[3]", "value": "binds weakly"}]}
